PubChem BioAssay AID1671190 (National Center for Advancing Translational Sciences (NCATS), 2021)
Screen size: about 580,000 compounds; about 6,100 (1.1%) were called active. The inconclusive results got no clear call from the source; some entries with a clear call stand among them for comparison. Calls come from the whole dose curve; as a rule, active = well fitted inhibition curve with a large enough effect; inconclusive = small, poorly fitted or top-dose-only effect, or another doubt; inactive = no such curve, though single readings can be large or run the other way. Potencies of inconclusive entries are doubtful fits and often do not repeat.

Protein sequences, listed by entry. Tags and fused reporters are not part of them. Lines headed by an entry give the natural chain unless they say otherwise; changes in a name come on top.
UniProt P18054: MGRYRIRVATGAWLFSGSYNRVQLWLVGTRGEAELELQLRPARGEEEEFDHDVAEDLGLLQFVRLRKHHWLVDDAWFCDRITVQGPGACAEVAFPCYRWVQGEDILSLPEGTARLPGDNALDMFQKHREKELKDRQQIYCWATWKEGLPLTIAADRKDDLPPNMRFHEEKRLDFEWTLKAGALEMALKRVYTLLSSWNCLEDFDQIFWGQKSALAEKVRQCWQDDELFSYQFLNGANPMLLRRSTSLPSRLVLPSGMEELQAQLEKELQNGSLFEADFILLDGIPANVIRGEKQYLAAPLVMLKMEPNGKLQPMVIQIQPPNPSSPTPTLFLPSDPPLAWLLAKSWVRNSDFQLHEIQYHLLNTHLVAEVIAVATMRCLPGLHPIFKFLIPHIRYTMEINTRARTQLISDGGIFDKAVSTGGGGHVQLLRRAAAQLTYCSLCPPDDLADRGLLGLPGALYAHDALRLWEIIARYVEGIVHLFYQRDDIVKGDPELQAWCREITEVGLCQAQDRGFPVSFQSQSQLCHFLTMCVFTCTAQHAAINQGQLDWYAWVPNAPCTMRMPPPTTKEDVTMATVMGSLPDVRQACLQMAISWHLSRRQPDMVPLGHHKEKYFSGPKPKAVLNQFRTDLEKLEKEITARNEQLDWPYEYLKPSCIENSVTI

Target: Polyunsaturated fatty acid lipoxygenase ALOX12 (Homo sapiens) (UniProt P18054)
Assay: Primary qHTS assay for inhibitors of human arachidonate 12S-lipoxygenase (ALOX12): Round 2
Details: purified 12hLO, xylenol orange hydroperoxide absorbance; activity change, negative = inhibition: at 108 µM (top of the series) unless noted
Procedure, shortened: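 Purified human 12hLO at 150 nM in 25 mM Hepes, 0.01% Triton X-100, pH 7.0, preincubated 15 min at room temperature with compound. Reaction started with 40 uM arachidonic acid, 30 min at room temperature. Hydroperoxide measured by Fe-xylenol orange, 573/405 nm absorbance ratio.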
% is set by controls: 0 for no effect and ±100 for the full control effect; potency is the fitted concentration of half-maximal effect.

Row | SMILES | Potency | activity change, negative = inhibition
1 | CCc1ccc(OCC(=O)NC(Cc2c[nH]c3ccccc23)C(=O)O)cc1 (stereo not drawn) | inconclusive: 50.1 µM [inhibitor, partial curve, poor fit] | –
2 | Cc1cc(=O)c(C(=O)N2CCCn3nc(CO)cc3C2)cn1C | inconclusive: 3.55 µM [inhibitor, full curve, poor fit] | –
3 | CC(C)C(=O)Nc1ccc2nc(SCC(=O)N3CCCC3)sc2c1 | – | inactive: 0%
4 | Cc1ccccc1Nc1cc(C(=O)NCCCN2CCN(c3cccc(Cl)c3)CC2)c2ccccc2n1 | inconclusive: 79.4 µM [inhibitor, partial curve, poor fit] | –
5 | COc1cc(C2Nc3ccc(C)cc3[C@H]3OCCC[C@@H]23)cc(Br)c1O (stereo partly drawn) | inconclusive: 126 µM [inhibitor, single point] | –
6 | CC(C)(C)C(=O)/C=C/c1ccc([N+](=O)[O-])cc1 | inconclusive: 50.1 µM [inhibitor, partial curve, poor fit] | –
7 | Cc1ccc(S(=O)(=O)c2cn(CC(=O)Nc3ccc(F)c(Cl)c3)c3nc(C)ccc3c2=O)cc1 | inconclusive: 8.91 µM [inhibitor, full curve, poor fit] | –
8 | Cn1cc(CNC(=O)C[C@@H]2C[C@H]3O[C@H](CNC(=O)N4CCOCC4)[C@@H](O)[C@H]3O2)cn1 | inconclusive: 7.94 µM [inhibitor, full curve, poor fit] | –
9 | CCc1ccc(NC(=O)c2ccc(CN3CC(=O)N4CCCCC4C3=O)cc2)cc1 (stereo not drawn) | inconclusive: 56.2 µM [inhibitor, partial curve, poor fit] | –
10 | CC(=O)c1nc(N2C(=O)C3CC=C(C)CC3C2=O)sc1C (stereo not drawn) | inconclusive: 12.6 µM [inhibitor, full curve] | –
11 | OC1=C(O)c2nc3cc(F)ccc3nc21 | – | inactive: 0%
12 | O=C(/C=C/c1cccc(Br)c1)c1ccc(O)cc1 | inconclusive: 2.51 µM [inhibitor, full curve, poor fit] | –
13 | COc1ccc(Cl)cc1C(=O)Nc1ccccc1N1CCN(C(=O)C(C)C)CC1 | – | inactive: 11.7%
14 | O=C(CCNC(=O)c1ccco1)Nc1nc2ccccc2s1 | – | inactive: -29.5%
15 | O=[N+]([O-])c1ccc(N2CCOCC2)cc1O | – | inactive: -88.2%
16 | CC(C)n1nc(C(=O)Nc2ccc(Oc3ccccc3)cc2)c2ccccc2c1=O | – | inactive: -0.0333%
17 | C=CCC[C@H](Cc1ccc(F)cc1)C(=O)OC[C@H](Cc1c[nH]c2ccccc12)NC(=O)[C@@H](CC=C)CC(=O)N[C@H](CO)Cc1ccccc1 | inconclusive: 100 µM [inhibitor, single point] | –
18 | Cc1cc(Br)ccc1NC(=O)c1ccc(=O)n(CCOc2ccccc2)n1 | inconclusive: 14.1 µM [inhibitor, partial curve, poor fit] | –
19 | S=C(NCCc1ccccc1)Nc1ccccc1I | inconclusive: 3.16 µM [inhibitor, full curve, poor fit] | –
20 | CC(C)N1C[C@H](C(=O)N2CCOCC2)[C@H](C(=O)O)C1 | – | inactive: 47.4%
21 | COc1cc(C(=O)Nc2ccccc2NC(=O)c2cc(OC)c(OC)c(OC)c2)cc(OC)c1OC | – | inactive: -1.18%

Row | SMILES | Potency | activity change, negative = inhibition
22 | CC(C)(C)OC(=O)N1CC(O)CC1C(=O)OCC(=O)c1ccc(-c2ccccc2)cc1 (stereo not drawn) | inconclusive: 39.8 µM [inhibitor, single point] | –
23 | Cc1ccc(-c2ccc3nnc(CNC(=O)c4ccc(Cl)cc4)n3n2)cc1 | inconclusive: 70.8 µM [inhibitor, partial curve] | –
24 | COc1cc(/C=C(\C#N)C(N)=O)ccc1OS(=O)(=O)c1ccc(C)cc1 | inconclusive: 44.7 µM [inhibitor, partial curve, poor fit] | –
25 | CC1(C(=O)NS(=O)(=O)c2ccccc2Cl)CCN1C(=O)COc1ccc(Cl)cc1 (stereo not drawn) | inconclusive: 0.631 µM [inhibitor, full curve, poor fit] | –
26 | CCCOc1ccc(C(=O)Nc2ccc3oc(-c4ccncc4)nc3c2)cc1 | inconclusive: 126 µM [inhibitor, single point] | –
27 | O=C(C[n+]1cc(-c2ccc(Cl)cc2)n2c1CCC2)N1c2ccccc2Sc2ccccc21 | inconclusive: 79.4 µM [inhibitor, partial curve, poor fit] | –
28 | CN(Cc1ccc(Cl)cc1Cl)C(=O)CNC(=O)c1ccc2c(c1)OCO2 | inconclusive: 79.4 µM [inhibitor, partial curve, poor fit] | –
29 | CCOCCCN(Cc1ccco1)S(=O)(=O)c1cc2c(cc1Cl)NC(=O)CO2 | inconclusive: 50.1 µM [inhibitor, partial curve, poor fit] | –
30 | CCc1cccc(C)c1NC(=O)Cn1ccn2nc(-c3ccccc3)c(CO)c2c1=O | inconclusive: 70.8 µM [inhibitor, single point] | –
31 | CC(C)(C)C(=O)C(Cc1ccc(C#N)cc1)C(=O)C(C)(C)C | – | inactive: -5.24%
32 | Cc1[nH]c2ccccc2c1/C=C/c1nc2ccccc2c(=O)n1C | inconclusive: 20 µM [inhibitor, full curve, poor fit] | –
33 | CCOC(=O)N1CCN(Cc2nc3c(c(=O)n(C)c(=O)n3C)n2Cc2cccc3ccccc23)CC1 | – | inactive: -17.7%
34 | O=Cc1cc([N+](=O)[O-])ccc1N1CCN(Cc2ccc3c(c2)OCO3)CC1 | – | inconclusive: -34.1% [inhibitor]
35 | CC(C)Cc1cc(CNC(=O)C(c2ccccc2F)N(C)C)on1 (stereo not drawn) | – | inactive: -24.1%
36 | O=C(Oc1ccc(N(C(=O)c2ccncc2)S(=O)(=O)c2ccc(Cl)cc2)cc1)c1ccncc1 | inconclusive: 56.2 µM [inhibitor, partial curve, poor fit] | –
37 | COc1ccc(C(CNC(=O)c2n[nH]c(=O)c3ccccc23)N(C)C)cc1 (stereo not drawn) | – | inactive: -5.49%
38 | CCCCOC(=O)c1c(N)n(-c2ccc(OC)cc2OC)c2nc3ccccc3nc12 | – | inactive: 0%
39 | CC(C)CC1C(=O)N(Cc2cn(Cc3ccco3)nn2)CCS(=O)(=O)N1Cc1ccc(-c2cccc(CO)c2)cc1 (stereo not drawn) | active: 22.4 µM | –
40 | COc1ccc([C@H]2CC(=O)C=C(c3cccc(CO)c3)C2)cc1OC | inconclusive: 100 µM [inhibitor, single point] | –
41 | Fc1ccc(Nc2ccc3ccccc3n2)c(F)c1 | inconclusive: 44.7 µM [inhibitor, partial curve, poor fit] | –
42 | CC(C)C1NC(=O)N(Cc2coc(-c3cccc(F)c3)n2)C1=O (stereo not drawn) | inconclusive: 44.7 µM [inhibitor, partial curve, poor fit] | –

Arranged by molar mass (low to high): part of the list above.
Row | SMILES | Potency | activity change, negative = inhibition
42 | CC(C)C1NC(=O)N(Cc2coc(-c3cccc(F)c3)n2)C1=O (stereo not drawn) | inconclusive: 44.7 µM [inhibitor, partial curve, poor fit] | –
35 | CC(C)Cc1cc(CNC(=O)C(c2ccccc2F)N(C)C)on1 (stereo not drawn) | – | inactive: -24.1%
30 | CCc1cccc(C)c1NC(=O)Cn1ccn2nc(-c3ccccc3)c(CO)c2c1=O | inconclusive: 70.8 µM [inhibitor, single point] | –

More results follow.

Row | SMILES | Potency | activity change, negative = inhibition
43 | O=C(c1cc(-c2ccc(Cl)cc2)n(-c2ccc(Cl)c(Cl)c2)n1)N1CCOCC1 | inconclusive: 39.8 µM [inhibitor, partial curve, poor fit] | –
44 | O=C(c1ccco1)N1CCCC(c2nc3c(nnn3Cc3ccc(F)cc3)c(=O)[nH]2)C1 (stereo not drawn) | inconclusive: 100 µM [inhibitor, single point] | –
45 | Cc1ccc(Sc2c(C)nn(-c3ccccc3)c2OC(=O)C(C)(C)C)cc1 | inconclusive: 50.1 µM [inhibitor, partial curve, poor fit] | –
46 | O=C(CN(Cc1ccccc1)S(=O)(=O)c1ccc(Br)cc1)N/N=C/c1ccccc1C(=O)O | inconclusive: 31.6 µM [inhibitor, partial curve, poor fit] | –
47 | COc1ccc(C(=O)N[C@@H]2C[C@H](COc3cccc(C)n3)[C@@H](O)[C@H]2O)cc1 | inconclusive: 12.6 µM [inhibitor, full curve, poor fit] | –
48 | COc1ccc([S+](=O)([O-])N2CCC3(CC2)OCCN(CCc2ccccc2)C3=O)cc1 | inconclusive: 12.6 µM [inhibitor, full curve] | –
49 | O=[N+]([O-])c1ccc(-c2nnc3cccc(Cl)n23)cc1 | – | inactive: 0%
50 | CN(Cc1ccc(F)cc1)S(C)(=O)=O | inconclusive: 126 µM [inhibitor, partial curve, poor fit] | –
51 | COc1cc(/C=C(/C#N)c2ccccc2)ccc1OCCOc1ccccc1 | inconclusive: 31.6 µM [inhibitor, single point] | –
52 | COC(=O)C1=C(O)/C(=C\c2ccc(O)c(OC)c2)N=C1C | inconclusive: 31.6 µM [inhibitor, partial curve, poor fit] | –
53 | CCN1C(=O)C(NC(=O)C(=O)NCCc2c[nH]c3ccc(Cl)cc23)c2ccccc21 (stereo not drawn) | inconclusive: 50.1 µM [inhibitor, partial curve, poor fit] | –
54 | O=C(Oc1ccc(C(=S)N2CCOCC2)cc1)c1ccc([N+](=O)[O-])cc1[N+](=O)[O-] | inconclusive: 3.55 µM [inhibitor, full curve, poor fit] | –
55 | O=C(Nc1ccccc1F)Nc1ccccc1Br | inconclusive: 44.7 µM [inhibitor, partial curve, poor fit] | –
56 | Cn1nc(C(C)(C)C)cc1C(=O)N1CCCC(c2cc(C(=O)NCc3ccccc3)no2)C1 (stereo not drawn) | inconclusive: 5.01 µM [inhibitor, full curve, poor fit] | –
57 | S=C(Nc1cccc2ccccc12)NN1CCCCCC1 | inconclusive: 44.7 µM [inhibitor, partial curve, poor fit] | –
58 | Cc1cc(C(=O)Nc2ccc(Nc3ccccc3)cc2)ccc1[N+](=O)[O-] | – | inactive: 89%
59 | COc1ccc(S(=O)(=O)NCC(c2cccnc2)N2CCN(c3ccccc3)CC2)cc1C (stereo not drawn) | – | inactive: 6.77%
60 | CCOC(=O)c1ccc(N2C(=O)c3n[nH]c(-c4cccs4)c3C2c2ccc(OCC)cc2)cc1 (stereo not drawn) | – | inactive: -17.5%
61 | COc1ccc(CCNc2oc(/C=C/c3cc(OC)c(OC)c(OC)c3)nc2C#N)cc1OC | – | inactive: -20%
62 | CN(C(=O)COC(=O)c1ccc[nH]c1=O)C1CCCCC1 | inconclusive: 89.1 µM [inhibitor, partial curve, poor fit] | –
63 | COc1ccc(OC)c(CCNC(=O)CS(=O)(=O)Cc2nc(-c3cccc(Cl)c3)oc2C)c1 | inconclusive: 141 µM [inhibitor, partial curve, poor fit] | –
